Test results published in PMC11633745.

The chains behind the UniProt entries cited, without tags or fusion partners. Where a name states a change or a piece, a line headed by the entry shows the natural chain unless it says otherwise. Residues count along the entry.
UniProt Q03164, residues 3694-3969: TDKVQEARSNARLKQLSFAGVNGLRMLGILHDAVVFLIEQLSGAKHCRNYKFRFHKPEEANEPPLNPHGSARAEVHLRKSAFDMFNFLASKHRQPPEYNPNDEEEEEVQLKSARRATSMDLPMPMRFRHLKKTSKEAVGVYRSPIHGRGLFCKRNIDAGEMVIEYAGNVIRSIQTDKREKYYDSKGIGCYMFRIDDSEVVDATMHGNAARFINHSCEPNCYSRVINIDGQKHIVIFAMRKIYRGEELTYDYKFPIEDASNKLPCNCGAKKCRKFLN
UniProt P23258: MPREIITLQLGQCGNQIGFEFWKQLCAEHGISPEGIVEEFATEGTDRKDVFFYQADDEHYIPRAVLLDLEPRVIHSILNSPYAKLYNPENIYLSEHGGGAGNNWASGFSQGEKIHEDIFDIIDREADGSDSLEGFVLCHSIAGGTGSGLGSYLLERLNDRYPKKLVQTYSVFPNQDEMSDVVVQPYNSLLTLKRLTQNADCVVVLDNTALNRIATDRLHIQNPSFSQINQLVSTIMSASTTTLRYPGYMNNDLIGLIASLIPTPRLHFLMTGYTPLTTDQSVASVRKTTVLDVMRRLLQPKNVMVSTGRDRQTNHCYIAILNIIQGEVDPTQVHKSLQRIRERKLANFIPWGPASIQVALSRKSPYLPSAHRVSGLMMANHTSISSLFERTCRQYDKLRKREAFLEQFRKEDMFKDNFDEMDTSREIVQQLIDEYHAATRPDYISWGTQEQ

How the values were obtained:
[1] = biological target: Cep72 (endogenous) (human (endogenous in HeLa)) (UniProt Q9P209); assay: co-IP; endogenous proteins immunoprecipitated from precleared HeLa cell lysate with anti-MLLC, anti-WDR5 or anti-Cep72 overnight at 4°C, Protein A Sepharose beads; anti-immunoglobulin G as mock IP; Western blot
GST-Cep72 (human) = GST-Cep72 (human) (UniProt Q9P209); assay: pull-down; GST fusion protein bound to glutathione agarose beads incubated with HeLa whole-cell lysate for 3 hours, washed three times [15 mM tris (pH 7.4), 100 mM KCl, 0.02% NP-40, 1 mM DTT, 1 mM PMSF]; SDS-PAGE and Western blot; only the target purified
[2] = biological target: GST-MLLCD3 (3694 to 3969 amino acids) (human) (UniProt Q03164); assay: as above

Measured: binding

γ-tubulin (endogenous) (from UniProt P23258)
binds: all assays above

Results are given in words; binding and its absence hold for the method and conditions named. Binding seen in cells or lysates may run through a third protein. Binding calls can cover weak binding; strength is not graded here.
